Data as given in PubChem BioAssay AID1454 (National Center for Advancing Translational Sciences (NCATS), 2008).
The whole screen tested about 130,000 compounds, of which about 550 (0.42%) were called active. The source calls these results inconclusive, neither active nor inactive. The call rests on the fitted dose curve; in most records, active means well fitted inhibition curve with a large enough effect; inconclusive means small, poorly fitted or top-dose-only effect, or effect the other way; inactive means flat fitted curve, though single readings scatter.

assay: qHTS Assay for Inhibitors of the ERK Signaling Pathway using a Homogeneous Screening Assay; Stimulation with EGF; conditions: HEK293-V1b, EGF-stimulated phospho-ERK AlphaScreen; further: nearly all actives have a fitted effect of over 55% in size
Potency means the concentration at half of the fitted maximal effect.

Structure (SMILES) | Potency
COc1ccccc1OP(C)(=O)Nc1ccc(Br)cc1 (stereo not given) | inconclusive: 28.2 µM
CCCCCOc1ccc(NP(C)(=O)Oc2ccc(Cl)cc2Cl)cc1 (stereo not given) | inconclusive: 28.2 µM
CCOC(=O)c1ccc(NP(C)(=O)Oc2ccc(F)cc2)cc1 (stereo not given) | inconclusive: 2.82 µM
COc1ccccc1OP(C)(=O)Nc1cccc(Br)c1 (stereo not given) | inconclusive: 39.8 µM
CCc1ccc(OP(C)(=O)N2CCN(c3ccc([N+](=O)[O-])cc3)CC2)cc1 (stereo not given) | inconclusive: 28.2 µM
